# PubChem BioAssay AID1053208 – Peter MacCallum Cancer Centre – 2014
# Screen: 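Genes whose silencing cuts survival of bone tumour cells only with doxorubicin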 (primary screen)
# Cell system: mouse osteosarcoma cells, early-passage culture from an engineered mouse model of fibroblastic bone tumour
# Reagent: siRNA pool against mouse genes, 40 nM
# Time to read-out: about 120 h (48 h before drug, then 72 h with drug)
# Challenge: doxorubicin 100 nM for 72 h, roughly 30-40% inhibitory dose
# Read-out: 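Luminescent ATP signal taken as viability with or without 100 nM doxorubicin for 72 h; mean of two wells set against non-targeting siRNA and turned into robust z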
# Reading the numbers: viability z-score with doxorubicin and doxorubicin viability vs non-targeting: higher = more viable cells under doxorubicin; viability z-score without drug: higher = more viable cells with knock-down alone; z-score of drug to no-drug ratio: higher = less drug sensitisation by knock-down
# Rule for the call: 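a pool counts as active when its viability z-score with doxorubicin is -2 or below and its z-score without drug lies between -2 and 2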
# The deposit covers about 17,000 reagents; this is an unselected part. Over the whole deposit, 788 (4.7%) got an active call. 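Calls rest on z-score classes alone; an extra cut-off of viability at most 70% of control was not applied to them.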 Unmarked entries are inactive.
gene,combined z-score class,viability z-score with doxorubicin,viability z-score without drug,z-score of drug to no-drug ratio,doxorubicin viability vs non-targeting
Eqtn (GeneID 67753),no change with or without drug,0.22,-1.52,1.57,0.96
Atg4d (GeneID 235040),no change with or without drug,-0.67,0.17,-0.67,0.88
Mab21l4 (GeneID 71874),no change with or without drug,-1.35,1.01,-1.91,0.82
Gli3 (GeneID 14634),no change with or without drug,0,-0.17,0.22,0.94
Edem1 (GeneID 192193),no change with or without drug,0.11,-0.17,0.34,0.95
Wdr27 (GeneID 71682),no change with or without drug,-1.8,1.85,-2.7,0.78
Armc5 (GeneID 233912),no change with or without drug,1.12,-1.01,2.14,1.04
Sox18 (GeneID 20672),no change with or without drug,0.56,0.34,0.45,0.99
Uts2r (GeneID 217369),no change with or without drug,0,0.51,-0.22,0.94
Cacna2d1 (GeneID 12293),no change with or without drug,1.01,0.34,0.9,1.03
Catsperz (GeneID 67077),no change with or without drug,0.67,0.84,0.22,1
Ciita (GeneID 12265),no change with or without drug,-0.22,1.18,-0.9,0.92
Armc7 (GeneID 276905),no change with or without drug,-1.12,0,-1.12,0.84
Ndufs8 (GeneID 225887),no change with or without drug,0.56,-0.84,1.35,0.99
Fsd2 (GeneID 244091),high cell count without drug only,0.45,2.7,-1.12,0.98
Capn1 (GeneID 12333),no change with or without drug,0,-0.17,0.22,0.94
Or3a10 (GeneID 259005),no change with or without drug,-0.9,-1.85,0.45,0.86
Noa1 (GeneID 56412),no change with or without drug,0,0.51,-0.22,0.94
H2ac6 (GeneID 319164),no change with or without drug,0.56,0.67,0.22,0.99
Sec24b (GeneID 99683),no change with or without drug,-0.11,1.18,-0.79,0.93

Copied from the listing (4 entries):
gene,combined z-score class,viability z-score with doxorubicin,viability z-score without drug,z-score of drug to no-drug ratio,doxorubicin viability vs non-targeting
Or3a10 (GeneID 259005),no change with or without drug,-0.9,-1.85,0.45,0.86
Noa1 (GeneID 56412),no change with or without drug,0,0.51,-0.22,0.94
H2ac6 (GeneID 319164),no change with or without drug,0.56,0.67,0.22,0.99
Sec24b (GeneID 99683),no change with or without drug,-0.11,1.18,-0.79,0.93

More results follow:
gene,combined z-score class,viability z-score with doxorubicin,viability z-score without drug,z-score of drug to no-drug ratio,doxorubicin viability vs non-targeting
Rnase4 (GeneID 58809),no change with or without drug,1.8,-1.35,3.15,1.1
Or52p2 (GeneID 258750),no change with or without drug,0.79,0.67,0.45,1.01
Or52d1 (GeneID 259058),low cell count with doxorubicin only (active),-2.7,-0.17,-2.7,0.7
1700024B05Rik (GeneID 100503856),high cell count with and without drug,2.81,2.7,1.01,1.19
Cyp11a1 (GeneID 13070),no change with or without drug,0.11,-0.84,0.9,0.95
Dnajc7 (GeneID 56354),no change with or without drug,1.12,0.17,1.12,1.04
Acoxl (GeneID 74121),no change with or without drug,-0.22,0.84,-0.67,0.92
Top1mt (GeneID 72960),no change with or without drug,-1.24,0.84,-1.69,0.83
Ggt5 (GeneID 23887),no change with or without drug,0.56,1.35,-0.22,0.99
Aox3 (GeneID 71724),no change with or without drug,0.11,0.51,-0.11,0.95
Tspan9 (GeneID 109246),no change with or without drug,0,0.17,0,0.94
Gm14461 (GeneID 329436),no change with or without drug,-0.45,-0.84,0.22,0.9
Srd5a2 (GeneID 94224),no change with or without drug,0.22,-0.67,0.79,0.96
Ankrd16 (GeneID 320816),no change with or without drug,-0.67,-0.51,-0.22,0.88
